Tested on: colorectal cancer cell lines
Assay: Cellular platinum levels by ICP-MS
Assay type: cell-based
Conditions: 10 μM, 2 h

Row | SMILES | Cellular uptake compared to oxaliplatin (ICP-MS) | Fold higher intracellular platinum levels than Ox(OAc)2 (in most of the tested cell lines) [fold]
1 | CC(=O)[O][Pt-2]12([O]C(C)=O)([NH2+][C@@H]3CCCC[C@H]3[NH2+]1)[O]C(=O)C(=O)[O]2 [Ox(OAc)2] | distinctly decreased cellular uptake | –
2 | CC(=O)Oc1ccccc1C(=O)[O][Pt-2]12([O]C(C)=O)([NH2+][C@@H]3CCCC[C@H]3[NH2+]1)[O]C(=O)C(=O)[O]2 [OxAsaOAc, (OC-6-44)-acetato(2-acetoxybenzoato)[(1R,2R)-1,2-cyclohexanediamino]oxalatoplatinum(IV)] | – | ~2

From publication PMC10334471, “Tumor-targeted dual-action NSAID-platinum(IV) anticancer prodrugs” (Inorganic Chemistry Frontiers, 2023)
